Measurements reported in PubChem BioAssay AID504774 (Drosophila RNAi Screening Center, 2011)

Aim: 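Genes required for cells to withstand methyl methanesulphonate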 (primary screen)
System: Drosophila Kc167 cells
Reagent: long dsRNA against Drosophila genes, about 0.25 µg dsRNA per well
Timing: about 6 days: 3 days knock-down, then 3 days with or without MMS
Challenge: methyl methanesulphonate 0.004% (w/v) for 3 days after knock-down
Measurement: 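ATP-dependent luminescence as a measure of live cells in MMS-exposed wells, quantile normalised within each plate, with replicate values also given as a mean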
Reading the numbers: mean viability with MMS: higher = more surviving cells after MMS
The screen tested about 23,000 reagents; below is an unselected part of those that have a named target and a result. 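Values are quantile-normalised luminescence on an arbitrary scale; higher means more cells surviving MMS.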 A plus sign joins genes that one reagent is predicted to hit. Further read-outs or replicates are left out here. No sequences are given here.

For CG11307 [DRSC11648], how do the results read?
mean viability with MMS: 3.47e6

Which result is listed for mRpL3 (mitochondrial ribosomal protein L3) [DRSC20100]?
mean viability with MMS: 3.59e6

Which result is listed for MESK2 + CG10494 [DRSC04259]?
mean viability with MMS: 3.46e6

For CG11560 [DRSC09843], how do the results read?
mean viability with MMS: 3.69e6

With MTPAP (mitochondrial poly(A) polymerase) [DRSC18585], what does the deposit list?
mean viability with MMS: 3.54e6

With CG6290 [DRSC19979], what was measured?
mean viability with MMS: 3.80e6

What did the screen give for Drsl2 (Drosomycin-like 2) [DRSC08160]?
mean viability with MMS: 3.67e6

With Sobp (Sine oculis-binding protein) [DRSC07312], what does the deposit list?
mean viability with MMS: 3.55e6

For Syx1A (Syntaxin 1A) [DRSC15359], what does the deposit list?
mean viability with MMS: 3.49e6

What is on record for Syx1A (Syntaxin 1A) [DRSC21554]?
mean viability with MMS: 3.38e6

What is on record for CG9497 [DRSC03234]?
mean viability with MMS: 3.57e6

For CG7367 [DRSC03049], how do the results read?
mean viability with MMS: 3.50e6

Which result is listed for CG8888 [DRSC07294]?
mean viability with MMS: 3.58e6

For CG8888 [DRSC07295], what does the deposit list?
mean viability with MMS: 3.47e6

For Tes (Testin) [DRSC06996], what does the deposit list?
mean viability with MMS: 3.57e6

Which result is listed for sun (stunted) [DRSC20140]?
mean viability with MMS: 3.46e6

How did the screen score CG9257 [DRSC03173]?
mean viability with MMS: 3.59e6

How did the screen score CG4641 (retired record) [DRSC10439]?
mean viability with MMS: 3.53e6

With Mob2 [DRSC09117], what does the deposit list?
mean viability with MMS: 3.22e6

How did the screen score Mob2 [DRSC09119]?
mean viability with MMS: 3.54e6

With Mob2 [DRSC09856], how do the results read?
mean viability with MMS: 3.43e6

For Mob2 [DRSC23274], what was measured?
mean viability with MMS: 3.60e6

With CG10359 [DRSC08156], what was measured?
mean viability with MMS: 3.55e6

Which result is listed for CG32640 + CG32641 [DRSC22885]?
mean viability with MMS: 3.42e6

Which result is listed for Nil (Nilkantha) [DRSC15953]?
mean viability with MMS: 3.29e6

How did the screen score Nil (Nilkantha) [DRSC23322]?
mean viability with MMS: 3.65e6

For pic (piccolo) [DRSC16639], what was measured?
mean viability with MMS: 3.42e6

With CG10348 [DRSC02043], how do the results read?
mean viability with MMS: 3.69e6

For CG10348 [DRSC21908], how do the results read?
mean viability with MMS: 3.51e6

What is on record for CG10348 [DRSC23233]?
mean viability with MMS: 3.58e6

What is on record for CG15760 [DRSC19725]?
mean viability with MMS: 3.53e6

With Ebp (Ejaculatory bulb protein) [DRSC04048], what does the deposit list?
mean viability with MMS: 3.69e6

What did the screen give for CG8399 [DRSC07163]?
mean viability with MMS: 3.50e6

How did the screen score Prx6a (Peroxiredoxin 6a) [DRSC00565]?
mean viability with MMS: 3.76e6

How did the screen score mRpL23 (mitochondrial ribosomal protein L23) [DRSC08307]?
mean viability with MMS: 3.63e6

3 entries already listed, arranged by “mean viability with MMS”, descending.
Prx6a (Peroxiredoxin 6a) [DRSC00565] | mean viability with MMS: 3.76e6
mRpL23 (mitochondrial ribosomal protein L23) [DRSC08307] | mean viability with MMS: 3.63e6
CG8399 [DRSC07163] | mean viability with MMS: 3.50e6
